{
  "source": "paper PMC3534288",
  "about": "(BMC Biophysics, 2012)",
  "origin": "cited, not measured here",
  "target": "mCA XIII",
  "details": "read-out: observed Ki; murine isozyme mCA XIII; cited from earlier work",
  "data": [
    {"smiles": "CC(=O)Nc1nnc(S(N)(=O)=O)s1", "note": "[AZM, acetazolamide]", "values": [
      {"measurement": "Ki", "result": 17, "unit": "nM"}
    ]}
  ]
}
